PubChem BioAssay AID1259308 – NCATS | 2017
Assay: 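Knock-downs that increase output of a recombinant reporter protein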 (primary screen). Cells: human HEK293 embryonic kidney cells stably expressing firefly luciferase (HEK-CMV-Luc2-Hygro). Reagents: single siRNA against human genes, 0.8 pmol siRNA per well. Duration: 72 h. Read-out: 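Reporter luminescence and viable-cell signal on separate replicate plates, given as percent of non-targeting control and median/MAD z-scores, plus per-cell luciferase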. Direction: total luciferase, z-score and total luciferase, % of control: higher = more reporter protein produced. Active means: 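An siRNA counts as active if its total luciferase robust z-score exceeds 3; genes with two or more such siRNAs out of three were retested with fresh siRNAs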. Meaning of the calls: active = raised luciferase; inactive = no rise.
The whole screen tested about 59,000 reagents; below is a random part of them. About 1,510 of them (2.6%) were called active. 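Calls use total luciferase alone and ignore viability, so some active siRNAs may act by altering cell number.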 The numbers tell different reagents against one gene apart. Further read-outs or replicates are left out here.

gene	reagent no.	total luciferase, z-score	total luciferase, % of control	Call
MIR663AHG	1	-0.0645	80.6	inactive
MIR663AHG	2	-0.0494	80.9	inactive
MIR663AHG	3	-0.0133	81.6	inactive
THBS4	1	0.261	87.1	inactive
THBS4	2	0.0974	83.8	inactive
THBS4	3	0.0913	83.7	inactive
NLRP8	1	-0.0107	81.7	inactive
NLRP8	2	0.00729	82	inactive
NLRP8	3	-0.106	79.8	inactive
C5orf58	1	-0.878	64.4	inactive
C5orf58	2	0.416	90.2	inactive
C5orf58	3	-0.262	76.7	inactive
ZBTB10	1	-0.736	67.3	inactive
ZBTB10	2	0.262	87.1	inactive
ZBTB10	3	0.885	99.5	inactive
MARK3	1	0.37	89.2	inactive
MARK3	2	2.87	139	inactive
MARK3	3	0.564	93.1	inactive
IDH2	1	0.174	85.3	inactive
IDH2	2	0.423	90.3	inactive
IDH2	3	1.56	113	inactive
B3GNT7	1	1.03	102	inactive
B3GNT7	2	-0.234	77.2	inactive
B3GNT7	3	-3.14	19.4	inactive
MORC2	1	2.48	131	inactive
MORC2	2	2.6	134	inactive
MORC2	3	1.4	110	inactive
UTP4	1	-2.08	40.6	inactive
UTP4	2	-1.3	56.1	inactive
UTP4	3	-1.63	49.5	inactive
TBC1D14	1	-0.391	74.1	inactive
TBC1D14	2	-1.25	57.1	inactive
TBC1D14	3	0.502	91.9	inactive

Continued; the last 4 above are carried over.
gene	reagent no.	total luciferase, z-score	total luciferase, % of control	Call
UTP4	3	-1.63	49.5	inactive
TBC1D14	1	-0.391	74.1	inactive
TBC1D14	2	-1.25	57.1	inactive
TBC1D14	3	0.502	91.9	inactive
TUBGCP3	1	-0.282	76.3	inactive
TUBGCP3	2	-0.116	79.6	inactive
TUBGCP3	3	0.677	95.4	inactive
PINX1	1	0.738	96.6	inactive
PINX1	2	0.329	88.4	inactive
PINX1	3	-0.334	75.2	inactive
CFAP144	1	-1.53	51.4	inactive
CFAP144	2	-0.771	66.5	inactive
CFAP144	3	-0.52	71.5	inactive
ENPP2	1	2.14	124	inactive
ENPP2	2	0.00688	82	inactive
ENPP2	3	-0.594	70.1	inactive
SMAD3	1	3.07	143	active
SMAD3	2	1.5	112	inactive
SMAD3	3	1.4	110	inactive
BRWD1	1	0.993	102	inactive
BRWD1	2	2.83	138	inactive
BRWD1	3	0.471	91.3	inactive
LPCAT3	1	2.4	130	inactive
LPCAT3	2	-1.2	58	inactive
LPCAT3	3	0.771	97.2	inactive
AMBP	1	-0.26	76.7	inactive
AMBP	2	-2.62	29.7	inactive
AMBP	3	-1.12	59.7	inactive
